Results are given in words; binding and its absence hold for the method and conditions named. In cells and extracts the contact can be indirect. Some binding calls cover weakened binding; strength is not graded here.
Assays:
[1] = molecular target: p53, as found in the co-immunoprecipitations with ARTS and with XIAP (UniProt P04637); experiment: co-IP; cells lysed in RIPA buffer (50 mM Tris-HCl pH 7.5, 150 mM NaCl, 0.3% NP-40); antibody 5 µg per 1000 µg protein overnight at 4 °C; protein A/G agarose 4 h; five washes; western blot. Cell line not stated. Etoposide-treated cells for ARTS-p53.
[2] = molecular target: endogenous p53 in A375 cells (human (endogenous in A375)) (UniProt P04637); experiment: proximity ligation; Duolink in situ PLA on endogenous proteins in A375 cells treated with DMSO or 10 µM B3 for 6 h; confocal microscopy

Row | Substance | binding [1] | binding [2]
1 | endogenous XIAP (co-immunoprecipitation with p53) (from UniProt P98170 1-497) | binds | –
2 | endogenous XIAP in A375 cells (from UniProt P98170 1-497) | – | binds

Source: article PMC11263447
